# PubChem BioAssay AID720505 | Drosophila RNAi Screening Center | 2013
# Screen: 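Knock-downs that reduce calcium influx once internal stores are emptied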 (primary screen)
# System: Drosophila S2R+ cells
# Knock-down reagent: long dsRNA against Drosophila genes
# Treatment: thapsigargin (2 µM) in calcium-free buffer to empty internal stores, then 2 mM calcium added back
# Detection: 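Stores emptied by 2 µM thapsigargin without calcium, then 2 mM calcium re-added; fluo-4 fluorescence followed by FLIPR in 384-well plates, per-well averaged endpoint, raw; two screen passes, some wells retested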
# Scale: calcium signal and retest calcium signal: higher = more calcium entry after store depletion
# Hit rule: 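Knock-downs counted as hits when calcium entry dropped relative to STIM1 positive and Rho1 negative controls present on each plate; roughly 1500 genes called, with reductions of differing size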
# Meaning of the calls: active = called as lowering calcium entry; inactive = not called
# In all, the deposit lists about 20,000 reagents; below is a random part of those that have a named target and a result. In the full data, about 2,100 (10%) got an active call. 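Raw plate signals without normalisation; calls rest on control-based scores that were not deposited; replicate 2 separates called from uncalled poorly.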 A plus sign joins genes that one reagent is predicted to hit. Not given: the amount of reagent, the time to read-out.
target gene,DRSC id,"calcium signal, replicate 1","calcium signal, replicate 2","retest calcium signal, replicate 1","retest calcium signal, replicate 2",activity call
CG16813,DRSC02520,117,105,,,inactive
CG14488,DRSC06460,156,128,,,inactive
CG30094,DRSC22268,75.6,162,,,inactive
e(y)2b,DRSC12556,107,178,,,inactive
drk,DRSC07606,141,105,,,inactive
CG31805,DRSC01563,111,87.9,,,inactive
Patronin,DRSC06756,177,146,,,inactive
Patronin,DRSC06757,190,135,,,inactive
Patronin,DRSC06994,186,117,,,inactive
CG10477,DRSC09732,46,86.4,,,inactive
CG2915,DRSC06842,140,90,,,inactive
CG17776,DRSC18136,124,112,,,inactive
NimB1,DRSC01880,99.7,88.5,,,inactive
CG10352,DRSC19353,112,93.5,,,inactive
Jhbp7,DRSC14408,192,131,,,inactive
Ih,DRSC05477,92.6,107,,,inactive
Ih,DRSC07445,202,154,,,inactive
Ih,DRSC22956,112,184,,,inactive
CG11509 (retired record),DRSC17788,70.5,94.8,,,active
tkv,DRSC00860,68.5,130,,,inactive
tkv,DRSC03623,95.5,290,,,inactive
tkv,DRSC22606,103,143,,,inactive
INPP5E,DRSC09723,106,78,,,inactive
CG3546,DRSC18308,208,105,,,inactive
Marc,DRSC06614,80.1,189,,,inactive
CG12693,DRSC17882,252,164,,,inactive
Septin2,DRSC16855,224,205,,,inactive
CG34124,DRSC00849,107,155,,,inactive
CG1620,DRSC06603,70.5,221,,,active
CG1275,DRSC08294,111,87.1,,,inactive
CG4880,DRSC19923,145,89.7,,,inactive
CG2017,DRSC12293,120,92,,,inactive
CG8289,DRSC20101,181,114,,,inactive
MESR4,DRSC06901,152,105,,,inactive
Sptz,DRSC15758,60.7,112,,,active
CG14966,DRSC08425,90.6,126,,,inactive
CG10845,DRSC14272,104,141,,,inactive
CG14000,DRSC02332,209,102,,,inactive
jdp,DRSC16975,103,184,,,inactive
CG15059,DRSC19633,114,129,,,inactive
cyr,DRSC18017,187,125,,,inactive
cyr,DRSC18018,183,162,,,inactive
cyr,DRSC18021,168,135,,,inactive
Grl58a,DRSC04145,190,85.1,,,inactive
Kif19A,DRSC16576,82.3,148,,,inactive
Arl6IP1,DRSC14231,143,139,,,inactive
CG6753,DRSC16108,132,123,,,inactive
CG13921,DRSC08390,111,79.8,97.8,110,inactive
CG14147,DRSC10149,64.7,85.9,,,inactive
Hsp67Ba,DRSC11191,63,107,,,inactive
CG10598,DRSC19358,99.9,116,,,inactive
AOX3,DRSC15955,99.2,105,,,inactive
CG7029,DRSC16177,142,258,,,inactive
CG10973,DRSC09813,129,88,,,inactive
CG6678,DRSC16092,126,230,,,inactive
mus81,DRSC18180,91.6,107,,,active
mus81,DRSC18644,87.3,169,,,inactive
Prp4k,DRSC08144,168,134,,,inactive
Cluap1,DRSC20637,209,96,157,114,inactive
CG15578,DRSC18066,250,159,,,inactive
PolG1,DRSC03621,89.8,141,,,inactive
Gr59c,DRSC04185,150,203,,,inactive
CG11050,DRSC02125,140,229,,,inactive
CG42323,DRSC19629,89.3,112,,,inactive
CG42323,DRSC21397,204,113,,,inactive
LanB1,DRSC03360,151,257,,,inactive
CG30099,DRSC07039,142,191,,,inactive
CG42254 (retired record),DRSC06194,177,224,,,inactive
CG13029,DRSC09909,69,199,,,inactive
CG13502,DRSC04147,63.9,177,,,inactive
E(spl)m3-HLH,DRSC16694,177,134,,,inactive
E(spl)m3-HLH,DRSC23160,92.3,82.2,,,inactive
rec,DRSC14998,138,122,,,inactive
rec,DRSC15656,93.3,133,,,inactive
CG3632,DRSC19137,79.4,108,,,inactive
CG3632,DRSC19871,131,114,,,inactive
CG14762,DRSC05073,93.7,126,,,inactive
CG14762,DRSC06496,105,82.6,,,inactive
Mccc2,DRSC04987,114,213,,,inactive
phtm,DRSC20237,39,96.6,,,active
CG11964,DRSC14447,116,145,,,inactive
CG17198 + CG17197,DRSC15190,136,106,,,inactive
CG17198 + CG17197,DRSC15191,174,125,,,inactive

Called active (from the list above):
target gene,DRSC id,"calcium signal, replicate 1","calcium signal, replicate 2","retest calcium signal, replicate 1","retest calcium signal, replicate 2",activity call
CG11509 (retired record),DRSC17788,70.5,94.8,,,active
CG1620,DRSC06603,70.5,221,,,active
Sptz,DRSC15758,60.7,112,,,active
mus81,DRSC18180,91.6,107,,,active
phtm,DRSC20237,39,96.6,,,active
